This passage reports binding results from patent US20250145711A1.

Sequences of proteins named here, by UniProt entry; tags and fusion partners are left off. Residues count along the entry.
UniProt P40259, residues 29-159: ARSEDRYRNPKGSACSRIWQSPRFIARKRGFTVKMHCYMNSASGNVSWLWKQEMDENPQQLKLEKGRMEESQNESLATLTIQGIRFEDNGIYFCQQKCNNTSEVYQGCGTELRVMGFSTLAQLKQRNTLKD

These are yes or no findings as the source states them, for the method shown. Some binding calls cover weakened binding; strength is not graded here.

In assay [1] the target is TRCW5 antigen (CD3δε-Fc-Avi). The assay is described as follows: ELISA / cell binding after heat. In general terms: In an ELISA, binding on a coated surface is turned into a signal by an enzyme label.
The target of assay [2] is CD79b (HDX-MS antigen) (human) (UniProt P40259). The assay is described as follows: HDX-MS.
Assay [3] addresses TRCW5 antigen (CD3δε-Fc-Avi). The assay is described as follows: ELISA: biotinylated TRCW5 on streptavidin plates at the antigen concentration of the x axis, E. coli scFv supernatant, anti-HA-HRP, luminescence.

B1: CD3B2089 (scFv)
scFv: QVQLVQSGAEVKKPGSSVKVSCKASGYTFTRSTMHWVRQAPGQGLEWMGYINPSSAYTNYAQKFQGRVTLTADKSTSTAYMELSSLRSEDTAVYYCASPQVHYDYNGFPYWGQGTLVTVSSGGSEGKSSGSGSESKSTGGSEIVLTQSPATLSASPGERVTLSCSASSSVSYMNWYQQKPGQAPRRWIYDSSKLASGVPARFSGSGSGRDYTLTISSLEPEDFAVYYCQQWSRNPPTFGGGTKVEIK
With B1, the binding entry in assay [1] is listed as “binds”.

B2: CD9B643 (antibody, V domains shown)
VH: QVQLQESGPGLVKPSQTLSLTCTVSGVSISNYYWSWIRQPPGKGLEWIGRISPSGRTNYNPSLKSRVTMSLDASKNQFSLKLSSVTAADTAVYYCARGEYSGTYSYSFDIWGQGTMVTVSS
VL: DIQMTQSPSSLSASVGDRVTITCRSSQSLFDSDDGNTYLDWFQQKPGQSPKLLIQTLSYRASGVPSRFSGSGSGTDFTLTISSLQPEDFATYYCMQRMEFPLTFGGGTKVEIKR
Regarding B2, the binding result in assay [2] was “binds”.

B3: CD3B1134 (scFv)
scFv: DIQLTQSPSSLSASVGDRVTITCSASSSVSYMNWYQQKPGTSPKRLIYDSSKLASGVPSRFSGSGSGTDYTLTISSLQPEDFATYYCQQWSRNPPTFGGGTKVEIKGGSEGKSSGSGSESKSTGGSEVQLVQSGAEVKKPGESLRISCKASGYTFTRSTMHWVRQMPGKGLEWMGYINPSSAYTNYNPSFQGHVTLSADKSISTAYLQWSSLKASDTAMYYCARPQVHYDYNGFPYWGQGTLVTVSS
Turning to B3, in assay [3], the binding result is recorded as “no binding (tested: 10 ug/ml (antigen))”.
